For one molecule, binding results are on record in paper PMC2734569, “Functional mapping of the fission yeast DNA polymerase δ B-subunit Cdc1 by site-directed and random pentapeptide insertion mutagenesis” (BMC Molecular Biology, 2009).

No constants are given. Whether binding was seen depends on the method and setting. Tags and fused reporters may be left off the sequences shown.

Assay in all cases: two-hybrid; LexA-Cdc1 bait (pBTM116 or pBTM116BN) with Gal4-Pol3 prey and co-expressed c-myc-tagged Cdc27 (pAA-Cdc27) in S. cerevisiae CTY10-5d; ONPG liquid culture beta-galactosidase assay, mean of triplicates, as percent of wild-type Cdc1
In one assay the target is T1, Cdc1-J7 (Schizosaccharomyces pombe, UniProt P87324 1-462, Met-GlyValProLeuMet-Glu).
T1 construct: Cdc1, S. pombe, with a pentapeptide inserted after residue 393; source: yeast two-hybrid fusion, in S. cerevisiae CTY10-5d
T1 sequence (looked up): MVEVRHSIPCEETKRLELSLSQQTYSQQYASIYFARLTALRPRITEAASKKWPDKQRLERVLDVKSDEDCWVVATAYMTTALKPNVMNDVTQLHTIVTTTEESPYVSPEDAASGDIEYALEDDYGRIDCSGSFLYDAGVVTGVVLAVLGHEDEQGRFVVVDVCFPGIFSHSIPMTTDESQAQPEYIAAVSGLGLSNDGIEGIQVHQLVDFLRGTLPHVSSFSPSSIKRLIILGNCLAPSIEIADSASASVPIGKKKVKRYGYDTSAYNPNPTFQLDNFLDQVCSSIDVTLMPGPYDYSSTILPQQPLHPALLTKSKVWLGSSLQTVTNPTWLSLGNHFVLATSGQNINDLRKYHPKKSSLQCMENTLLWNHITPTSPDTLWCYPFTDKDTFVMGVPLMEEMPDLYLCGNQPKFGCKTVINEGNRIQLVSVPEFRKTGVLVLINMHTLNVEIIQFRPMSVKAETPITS

Another assay has as its target T2, Cdc1-J6 (Schizosaccharomyces pombe, UniProt P87324 1-462, Tyr-GlyValProHisTyr-Gly).
T2 construct: Cdc1, S. pombe, with a pentapeptide inserted after residue 124; source: yeast two-hybrid fusion, in S. cerevisiae CTY10-5d
T2 sequence (looked up): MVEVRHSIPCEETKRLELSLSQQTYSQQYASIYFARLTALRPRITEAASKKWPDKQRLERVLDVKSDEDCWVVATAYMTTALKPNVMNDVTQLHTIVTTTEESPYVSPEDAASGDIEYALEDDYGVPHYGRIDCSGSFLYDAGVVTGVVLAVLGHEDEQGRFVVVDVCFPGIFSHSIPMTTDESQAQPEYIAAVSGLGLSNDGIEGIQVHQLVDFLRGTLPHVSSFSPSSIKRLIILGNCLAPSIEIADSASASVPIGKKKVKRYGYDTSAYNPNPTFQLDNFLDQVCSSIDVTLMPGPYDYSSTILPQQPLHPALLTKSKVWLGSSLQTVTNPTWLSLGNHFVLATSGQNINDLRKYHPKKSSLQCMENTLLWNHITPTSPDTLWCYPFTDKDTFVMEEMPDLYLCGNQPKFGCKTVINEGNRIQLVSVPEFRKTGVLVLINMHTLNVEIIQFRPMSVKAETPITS

A further assay addresses T3, Cdc1-J8 (Schizosaccharomyces pombe, UniProt P87324 1-462, Lys-GlyValProLeuLys-Pro).
T3 construct: Cdc1, S. pombe, with a pentapeptide inserted after residue 83; also called J19; source: yeast two-hybrid fusion, in S. cerevisiae CTY10-5d
T3 sequence (looked up): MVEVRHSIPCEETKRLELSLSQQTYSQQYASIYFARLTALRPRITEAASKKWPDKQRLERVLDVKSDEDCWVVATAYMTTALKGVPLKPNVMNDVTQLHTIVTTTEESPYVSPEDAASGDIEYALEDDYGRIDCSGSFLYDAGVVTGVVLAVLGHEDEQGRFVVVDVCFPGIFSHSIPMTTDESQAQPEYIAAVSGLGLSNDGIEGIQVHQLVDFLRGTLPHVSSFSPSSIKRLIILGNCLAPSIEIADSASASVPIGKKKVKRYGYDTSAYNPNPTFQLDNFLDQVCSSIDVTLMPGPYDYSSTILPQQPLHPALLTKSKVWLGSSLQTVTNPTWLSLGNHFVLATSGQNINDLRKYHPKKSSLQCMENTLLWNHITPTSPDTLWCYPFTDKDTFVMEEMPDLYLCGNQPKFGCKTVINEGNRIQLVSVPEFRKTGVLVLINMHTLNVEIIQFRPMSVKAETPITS

The target of the next assay is T4, Cdc1-A9 (Schizosaccharomyces pombe, UniProt P87324 1-462, Pro292Ala | Gly293Ala).
T4 construct: Cdc1, S. pombe, double point mutant (A1 and A2 combined); source: yeast two-hybrid fusion, in S. cerevisiae CTY10-5d
T4 sequence (looked up): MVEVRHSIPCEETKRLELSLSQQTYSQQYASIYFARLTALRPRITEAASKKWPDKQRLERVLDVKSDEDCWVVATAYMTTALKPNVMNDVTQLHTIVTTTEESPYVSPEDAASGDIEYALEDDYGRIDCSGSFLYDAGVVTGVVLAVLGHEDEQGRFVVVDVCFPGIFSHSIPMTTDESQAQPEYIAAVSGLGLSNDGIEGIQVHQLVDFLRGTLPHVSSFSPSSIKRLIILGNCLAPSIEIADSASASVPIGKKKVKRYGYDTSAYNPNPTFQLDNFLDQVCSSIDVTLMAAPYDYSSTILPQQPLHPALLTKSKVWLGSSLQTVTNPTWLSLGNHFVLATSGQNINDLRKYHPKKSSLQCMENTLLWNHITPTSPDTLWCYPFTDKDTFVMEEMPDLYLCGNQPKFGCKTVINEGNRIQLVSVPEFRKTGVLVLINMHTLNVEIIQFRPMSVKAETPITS

B1: Pol3 (fission yeast DNA polymerase delta catalytic subunit) (natural protein, Schizosaccharomyces pombe, UniProt P30316 1-1086, looked up)
chain: MTDRSSNEGVVLNKENYPFPRRNGSIHGEITDVKRRRLSERNGYGDKKGSSSKEKTSSFEDELAEYASQLDQDEIKSSKDQQWQRPALPAINPEKDDIYFQQIDSEEFTEGSVPSIRLFGVTDNGNSILVHVVGFLPYFYVKAPVGFRPEMLERFTQDLDATCNGGVIDHCIIEMKENLYGFQGNEKSPFIKIFTTNPRILSRARNVFERGEFNFEELFPVGVGVTTFESNTQYLLRFMIDCDVVGMNWIHLPASKYQFRYQNRVSNCQIEAWINYKDLISLPAEGQWSKMAPLRIMSFDIECAGRKGVFPDPSIDPVIQIASIVTQYGDSTPFVRNVFCVDTCSQIVGTQVYEFQNQAEMLSSWSKFVRDVDPDVLIGYNICNFDIPYLLDRAKSLRIHNFPLLGRIHNFFSVAKETTFSSKAYGTRESKTTSIPGRLQLDMLQVMQRDFKLRSYSLNAVCSQFLGEQKEDVHYSIITDLQNGTADSRRRLAIYCLKDAYLPQRLMDKLMCFVNYTEMARVTGVPFNFLLARGQQIKVISQLFRKALQHDLVVPNIRVNGTDEQYEGATVIEPIKGYYDTPIATLDFSSLYPSIMQAHNLCYTTLLDSNTAELLKLKQDVDYSVTPNGDYFVKPHVRKGLLPIILADLLNARKKAKADLKKETDPFKKAVLDGRQLALKVSANSVYGFTGATNGRLPCLAISSSVTSYGRQMIEKTKDVVEKRYRIENGYSHDAVVIYGDTDSVMVKFGVKTLPEAMKLGEEAANYVSDQFPNPIKLEFEKVYFPYLLISKKRYAGLFWTRTDTYDKMDSKGIETVRRDNCPLVSYVIDTALRKMLIDQDVEGAQLFTKKVISDLLQNKIDMSQLVITKALSKTDYAAKMAHVELAERMRKRDAGSAPAIGDRVAYVIIKGAQGDQFYMRSEDPIYVLENNIPIDAKYYLENQLSKPLLRIFEPILGEKASSLLHGDHTRTISMAAPSVGGIMKFAVKVETCLGCKAPIKKGKTALCENCLNRSAELYQRQVAQVNDLEVRFARLWTQCQRCQGSMHQDVICTSRDCPIFYMRIAEHKKLQQSVDLLKRFDEMSW
notes: DNA polymerase delta catalytic subunit Pol3, S. pombe; prey plasmid named pACT-Pol3 in the results and pGAD2F-Pol3 in the methods; also called Gal4-Pol3; pACT-Pol3; source: yeast two-hybrid fusion, in S. cerevisiae CTY10-5d
Take B1: the binding entry in the assay with Cdc1-J7 is listed as “no binding (tested: <1% of wild type (Table 1))”; in the assay with Cdc1-J6 it was “no binding (tested: <1% of wild type (Table 1))”; in the assay with Cdc1-J8, “no binding (tested: <1% of wild type (Table 1))”; with Cdc1-A9, “no binding (tested: <1% of wild type)”.
